PubChem BioAssay AID1259425, University of Nebraska Medical Center, 2018
The deposit covers about 14,000 reagents; this is a random part of them. Not all columns of the deposit are shown. The record does not give: the time to read-out.

- Aim: 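Find knockdowns that reproduce the gene expression pattern seen when KSR1 is lost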 (primary screen)
- Cells: HCT116 human colon cancer cells
- Reagents: siRNA pool against human genes, 50 nM siRNA
- Read-out: 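mRNA of six signature genes measured together by branched-DNA assay after 50 nM siRNA pool, blank removed, divided by geometric mean of two housekeeping genes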
- Direction: BNIP3L mRNA: higher = more BNIP3L transcript after knockdown

The opening 4 entries, to show the layout:
| Target gene | BNIP3L mRNA, set 1 |
| --- | --- |
| PIK3C3 | 0.0839 |
| TGFB1 | 0.0907 |
| KCNG3 | 0.142 |
| HAGHL | 0.102 |

The listing, from the first entry:
| Target gene | BNIP3L mRNA, set 1 |
| --- | --- |
| PIK3C3 | 0.0839 |
| TGFB1 | 0.0907 |
| KCNG3 | 0.142 |
| HAGHL | 0.102 |
| ISG20 | 0.13 |
| CHST10 | 0.134 |
| SFTPA2B (retired record) | 0.0994 |
| CNNM2 | 0.0884 |
| ZC3H13 | 0.0641 |
| GMPR2 | 0.091 |
| GNA12 | 0.124 |
| FCAR | 0.102 |
| KAT2A | 0.0875 |
| TSNAXIP1 | 0.133 |
| NPL | 0.158 |
| IRAK4 | 0.0734 |
| SPAG1 | 0.149 |
| CCL13 | 0.0736 |
| ATP2A2 | 0.127 |
| PBRM1 | 0.105 |
| PPEF2 | 0.0725 |
| WSB2 | 0.0703 |
| ASIC3 | 0.16 |
| THBS2 | 0.106 |
| KCTD16 | 0.13 |
| EMC7 | 0.0895 |
| PCSK7 | 0.109 |
| TLX2 | 0.0455 |
| FOXD3 | 0.0665 |
| C8orf76 | 0.0593 |
| LGALS1 | 0.184 |
| CYP21A2 | 0.0594 |
| DCAF8 | 0.141 |
| STAT4 | 0.0825 |
